Test results from patent US20260000764A1 (CITY OF HOPE, published 2026).
These are yes or no findings as the source states them, for the method shown. Some entries that bind do so weakly or less than the wild type. Sequences can lack the tags named with a protein.

Sequences of proteins named here, by UniProt entry; tags and fusion partners are left off. A change or cut given only in a name is not applied to a line headed by its entry.
UniProt P35225: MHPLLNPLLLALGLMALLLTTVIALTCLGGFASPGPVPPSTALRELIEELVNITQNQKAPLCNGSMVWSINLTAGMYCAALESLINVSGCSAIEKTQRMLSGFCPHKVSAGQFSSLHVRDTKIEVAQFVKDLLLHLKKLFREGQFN

Columns and labels:
[1] = biological target: T1, Biotinylated recombinant human IL-13Rα2 ectodomain with C-terminal biotin acceptor peptide and hexahistidine tag (human) (UniProt Q14627); assay: yeast display, flow cytometry (FIG. 1B legend)
T1 sequence (chain, biotin on the biotin acceptor peptide (coexpressed with BirA ligase)): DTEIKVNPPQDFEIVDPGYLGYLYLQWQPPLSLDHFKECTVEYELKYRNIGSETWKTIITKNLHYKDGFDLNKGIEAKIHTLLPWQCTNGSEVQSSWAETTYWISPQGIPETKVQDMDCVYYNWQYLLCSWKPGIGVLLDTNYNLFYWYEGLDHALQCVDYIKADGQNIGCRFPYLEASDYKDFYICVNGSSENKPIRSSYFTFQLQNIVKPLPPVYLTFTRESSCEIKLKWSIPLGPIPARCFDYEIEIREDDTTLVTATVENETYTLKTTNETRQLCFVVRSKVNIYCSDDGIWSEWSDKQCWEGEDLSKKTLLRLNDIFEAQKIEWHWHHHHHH

[2] = biological target: T1, Biotinylated recombinant human IL-13Rα2 ectodomain with C-terminal biotin acceptor peptide and hexahistidine tag (human); assay: yeast display, flow cytometry with biotinylated receptor and streptavidin-Alexa-647

Row | binding [1] | binding [2] | Substance
1 | binds | binds | IL13 C4 displayed on the surface of yeast (from UniProt P35225 35-146) (ligand)
2 | binds | binds | IL13 D7 displayed on the surface of yeast (from UniProt P35225 35-146) (ligand)
